Assay results reported in paper PMC2229861.
These are yes or no findings as the source states them, for the method shown. Binding seen in cells or lysates may run through a third protein.

Chains of the proteins cited; added tags and fusions are not shown.
UniProt Q9Y6W5: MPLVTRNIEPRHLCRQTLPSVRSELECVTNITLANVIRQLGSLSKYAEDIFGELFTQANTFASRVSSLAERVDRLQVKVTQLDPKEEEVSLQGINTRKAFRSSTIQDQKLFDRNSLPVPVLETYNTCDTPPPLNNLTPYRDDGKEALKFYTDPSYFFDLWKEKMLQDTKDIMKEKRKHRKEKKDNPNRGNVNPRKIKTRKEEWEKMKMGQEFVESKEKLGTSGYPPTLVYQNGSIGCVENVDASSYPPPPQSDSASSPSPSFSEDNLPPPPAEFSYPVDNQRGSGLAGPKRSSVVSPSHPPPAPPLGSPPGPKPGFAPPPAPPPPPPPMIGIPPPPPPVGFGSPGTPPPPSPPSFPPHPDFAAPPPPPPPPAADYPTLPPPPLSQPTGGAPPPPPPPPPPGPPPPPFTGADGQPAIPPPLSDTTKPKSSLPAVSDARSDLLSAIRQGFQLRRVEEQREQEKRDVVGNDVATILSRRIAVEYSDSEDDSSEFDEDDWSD
UniProt Q9Z207: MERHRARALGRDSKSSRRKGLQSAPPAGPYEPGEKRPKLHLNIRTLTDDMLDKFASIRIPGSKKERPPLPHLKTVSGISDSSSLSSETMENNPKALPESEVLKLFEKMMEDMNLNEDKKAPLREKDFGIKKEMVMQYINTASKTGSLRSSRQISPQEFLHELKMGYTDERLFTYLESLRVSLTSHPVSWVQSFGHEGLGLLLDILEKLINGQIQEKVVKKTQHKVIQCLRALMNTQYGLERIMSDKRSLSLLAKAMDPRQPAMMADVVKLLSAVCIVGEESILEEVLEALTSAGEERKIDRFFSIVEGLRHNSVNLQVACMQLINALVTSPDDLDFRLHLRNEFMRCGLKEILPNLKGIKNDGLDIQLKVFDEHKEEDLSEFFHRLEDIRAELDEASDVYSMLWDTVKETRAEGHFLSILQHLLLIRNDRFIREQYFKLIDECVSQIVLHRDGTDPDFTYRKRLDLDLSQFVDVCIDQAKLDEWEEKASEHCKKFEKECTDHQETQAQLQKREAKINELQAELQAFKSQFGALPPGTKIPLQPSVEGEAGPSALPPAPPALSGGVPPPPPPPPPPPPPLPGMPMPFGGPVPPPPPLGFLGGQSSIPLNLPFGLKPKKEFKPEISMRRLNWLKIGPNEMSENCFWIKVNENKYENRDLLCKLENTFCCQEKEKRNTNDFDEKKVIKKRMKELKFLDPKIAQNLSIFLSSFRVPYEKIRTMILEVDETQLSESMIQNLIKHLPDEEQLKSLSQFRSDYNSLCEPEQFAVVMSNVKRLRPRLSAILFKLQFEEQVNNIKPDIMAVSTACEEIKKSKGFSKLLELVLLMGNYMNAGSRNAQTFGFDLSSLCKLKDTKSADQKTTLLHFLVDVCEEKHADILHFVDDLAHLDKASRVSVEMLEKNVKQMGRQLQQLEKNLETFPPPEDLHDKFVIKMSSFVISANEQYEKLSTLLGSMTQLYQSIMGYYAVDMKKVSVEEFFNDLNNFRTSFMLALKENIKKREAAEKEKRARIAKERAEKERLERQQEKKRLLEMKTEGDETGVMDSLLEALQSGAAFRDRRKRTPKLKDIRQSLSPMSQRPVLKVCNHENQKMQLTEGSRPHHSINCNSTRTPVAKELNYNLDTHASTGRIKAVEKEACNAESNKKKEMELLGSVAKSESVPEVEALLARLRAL

Molecular target: WAVE2 (UniProt Q9Y6W5)
Experiment: co-IP; total cellular lysates (1 mg) of 293T cells cotransfected with GFP-FL-mDia2, WAVE2 and Abi1, alone or in combination; immunoprecipitated with an anti-WAVE2 antibody; immunoblot

- binding: no binding
Substance: GFP-FL-mDia2 (full-length mDia2 fused to GFP) (from UniProt Q9Z207 1-1171)
